{"sequences": {"note": "The chains behind the UniProt entries cited, without tags or fusion partners. Where a name states a change or a piece, a line headed by the entry shows the natural chain unless it says otherwise.", "UniProt Q91XA2": "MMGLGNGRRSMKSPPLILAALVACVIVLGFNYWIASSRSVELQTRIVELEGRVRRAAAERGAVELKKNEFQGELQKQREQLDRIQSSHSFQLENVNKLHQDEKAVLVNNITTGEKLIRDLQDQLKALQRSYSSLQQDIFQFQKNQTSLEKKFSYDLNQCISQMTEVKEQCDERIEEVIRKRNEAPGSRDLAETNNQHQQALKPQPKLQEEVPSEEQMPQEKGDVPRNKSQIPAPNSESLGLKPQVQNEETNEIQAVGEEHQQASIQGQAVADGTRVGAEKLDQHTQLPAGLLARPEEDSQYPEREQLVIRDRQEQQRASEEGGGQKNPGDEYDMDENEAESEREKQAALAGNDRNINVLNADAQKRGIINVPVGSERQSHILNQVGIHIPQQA", "UniProt Q91Z38": "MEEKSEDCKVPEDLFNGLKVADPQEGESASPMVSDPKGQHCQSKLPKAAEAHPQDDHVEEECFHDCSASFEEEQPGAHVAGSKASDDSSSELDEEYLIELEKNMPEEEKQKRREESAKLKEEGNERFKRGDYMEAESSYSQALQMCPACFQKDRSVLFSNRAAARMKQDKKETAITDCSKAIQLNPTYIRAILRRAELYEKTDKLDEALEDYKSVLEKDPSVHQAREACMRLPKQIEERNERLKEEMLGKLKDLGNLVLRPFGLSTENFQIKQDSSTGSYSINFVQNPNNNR", "UniProt Q91YT0, whole entry": "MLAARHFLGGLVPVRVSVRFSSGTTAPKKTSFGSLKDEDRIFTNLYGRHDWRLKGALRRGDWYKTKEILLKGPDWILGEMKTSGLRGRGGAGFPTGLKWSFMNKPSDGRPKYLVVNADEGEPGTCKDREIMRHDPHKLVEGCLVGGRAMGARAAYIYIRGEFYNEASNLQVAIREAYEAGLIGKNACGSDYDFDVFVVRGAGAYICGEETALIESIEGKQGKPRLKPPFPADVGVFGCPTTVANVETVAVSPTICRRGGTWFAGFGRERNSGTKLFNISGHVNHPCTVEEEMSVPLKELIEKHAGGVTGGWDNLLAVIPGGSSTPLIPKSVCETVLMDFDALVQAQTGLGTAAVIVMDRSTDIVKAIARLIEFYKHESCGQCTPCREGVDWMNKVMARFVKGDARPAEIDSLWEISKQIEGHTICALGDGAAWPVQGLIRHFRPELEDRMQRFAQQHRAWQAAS", "UniProt Q91W43": "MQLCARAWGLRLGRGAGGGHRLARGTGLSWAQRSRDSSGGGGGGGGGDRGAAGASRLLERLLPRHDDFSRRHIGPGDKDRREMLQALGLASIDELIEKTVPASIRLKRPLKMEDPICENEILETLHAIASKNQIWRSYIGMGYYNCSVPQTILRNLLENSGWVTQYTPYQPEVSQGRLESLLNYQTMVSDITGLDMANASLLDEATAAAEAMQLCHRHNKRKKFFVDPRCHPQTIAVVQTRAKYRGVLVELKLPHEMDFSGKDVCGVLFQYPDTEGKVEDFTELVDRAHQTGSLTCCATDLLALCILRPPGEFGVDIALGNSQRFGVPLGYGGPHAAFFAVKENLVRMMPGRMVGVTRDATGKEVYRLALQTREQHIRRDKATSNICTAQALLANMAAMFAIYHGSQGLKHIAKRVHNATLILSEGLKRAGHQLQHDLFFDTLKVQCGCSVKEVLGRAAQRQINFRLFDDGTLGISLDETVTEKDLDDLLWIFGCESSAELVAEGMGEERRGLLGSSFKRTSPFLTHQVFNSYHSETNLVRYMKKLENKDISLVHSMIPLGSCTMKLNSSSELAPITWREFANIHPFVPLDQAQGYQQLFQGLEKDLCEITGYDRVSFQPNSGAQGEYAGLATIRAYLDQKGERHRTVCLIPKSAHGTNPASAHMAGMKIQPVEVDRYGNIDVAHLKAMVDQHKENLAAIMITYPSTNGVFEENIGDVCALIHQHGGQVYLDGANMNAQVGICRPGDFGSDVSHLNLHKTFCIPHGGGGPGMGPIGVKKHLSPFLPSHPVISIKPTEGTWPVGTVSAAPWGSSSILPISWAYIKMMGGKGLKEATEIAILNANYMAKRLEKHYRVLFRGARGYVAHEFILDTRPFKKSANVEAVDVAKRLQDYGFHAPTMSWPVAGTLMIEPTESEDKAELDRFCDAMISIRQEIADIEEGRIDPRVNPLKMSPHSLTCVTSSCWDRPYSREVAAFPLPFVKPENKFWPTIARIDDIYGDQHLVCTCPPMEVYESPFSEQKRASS", "UniProt Q91WE2": "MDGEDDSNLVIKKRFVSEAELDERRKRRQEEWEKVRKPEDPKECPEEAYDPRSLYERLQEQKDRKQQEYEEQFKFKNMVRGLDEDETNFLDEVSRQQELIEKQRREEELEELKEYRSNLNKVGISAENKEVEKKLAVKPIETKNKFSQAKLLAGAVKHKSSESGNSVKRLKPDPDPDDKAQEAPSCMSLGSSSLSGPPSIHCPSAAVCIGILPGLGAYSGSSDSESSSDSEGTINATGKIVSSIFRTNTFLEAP", "UniProt Q91XV3": "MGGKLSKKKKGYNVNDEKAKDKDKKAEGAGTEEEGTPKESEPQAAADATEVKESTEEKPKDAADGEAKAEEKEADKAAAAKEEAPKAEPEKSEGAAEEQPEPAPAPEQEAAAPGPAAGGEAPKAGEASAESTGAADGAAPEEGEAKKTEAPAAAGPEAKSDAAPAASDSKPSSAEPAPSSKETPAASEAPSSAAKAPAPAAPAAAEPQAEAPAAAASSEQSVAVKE", "UniProt Q91YI0, whole entry": "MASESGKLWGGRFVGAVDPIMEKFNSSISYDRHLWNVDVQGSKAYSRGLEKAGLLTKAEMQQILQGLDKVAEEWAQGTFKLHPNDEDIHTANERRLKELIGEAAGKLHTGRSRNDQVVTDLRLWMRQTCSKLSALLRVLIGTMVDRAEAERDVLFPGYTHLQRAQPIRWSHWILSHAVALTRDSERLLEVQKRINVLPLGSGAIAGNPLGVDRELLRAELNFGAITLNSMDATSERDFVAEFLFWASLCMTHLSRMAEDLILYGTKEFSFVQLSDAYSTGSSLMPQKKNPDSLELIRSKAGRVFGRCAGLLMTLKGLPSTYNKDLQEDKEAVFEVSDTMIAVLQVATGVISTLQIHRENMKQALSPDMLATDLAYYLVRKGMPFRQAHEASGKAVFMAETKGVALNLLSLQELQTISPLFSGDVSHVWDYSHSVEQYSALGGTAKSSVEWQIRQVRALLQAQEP", "UniProt Q91YX0": "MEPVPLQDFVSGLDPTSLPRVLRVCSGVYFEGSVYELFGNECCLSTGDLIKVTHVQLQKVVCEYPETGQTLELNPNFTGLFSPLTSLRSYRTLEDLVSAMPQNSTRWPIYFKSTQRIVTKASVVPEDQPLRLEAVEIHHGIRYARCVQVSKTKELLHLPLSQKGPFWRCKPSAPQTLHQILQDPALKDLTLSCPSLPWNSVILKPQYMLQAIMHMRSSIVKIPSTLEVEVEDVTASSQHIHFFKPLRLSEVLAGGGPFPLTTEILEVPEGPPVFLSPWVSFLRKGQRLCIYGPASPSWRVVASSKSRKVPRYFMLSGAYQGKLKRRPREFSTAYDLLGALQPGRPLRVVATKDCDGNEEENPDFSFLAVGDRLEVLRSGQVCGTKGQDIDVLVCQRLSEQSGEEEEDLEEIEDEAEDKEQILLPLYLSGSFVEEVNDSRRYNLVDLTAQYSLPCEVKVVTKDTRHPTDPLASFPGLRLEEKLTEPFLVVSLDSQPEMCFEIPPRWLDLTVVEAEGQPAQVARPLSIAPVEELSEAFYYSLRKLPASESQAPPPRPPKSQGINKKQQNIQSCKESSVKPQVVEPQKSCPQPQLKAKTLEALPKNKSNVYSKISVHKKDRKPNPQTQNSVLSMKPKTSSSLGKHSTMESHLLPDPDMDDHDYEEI", "UniProt Q91WC3": "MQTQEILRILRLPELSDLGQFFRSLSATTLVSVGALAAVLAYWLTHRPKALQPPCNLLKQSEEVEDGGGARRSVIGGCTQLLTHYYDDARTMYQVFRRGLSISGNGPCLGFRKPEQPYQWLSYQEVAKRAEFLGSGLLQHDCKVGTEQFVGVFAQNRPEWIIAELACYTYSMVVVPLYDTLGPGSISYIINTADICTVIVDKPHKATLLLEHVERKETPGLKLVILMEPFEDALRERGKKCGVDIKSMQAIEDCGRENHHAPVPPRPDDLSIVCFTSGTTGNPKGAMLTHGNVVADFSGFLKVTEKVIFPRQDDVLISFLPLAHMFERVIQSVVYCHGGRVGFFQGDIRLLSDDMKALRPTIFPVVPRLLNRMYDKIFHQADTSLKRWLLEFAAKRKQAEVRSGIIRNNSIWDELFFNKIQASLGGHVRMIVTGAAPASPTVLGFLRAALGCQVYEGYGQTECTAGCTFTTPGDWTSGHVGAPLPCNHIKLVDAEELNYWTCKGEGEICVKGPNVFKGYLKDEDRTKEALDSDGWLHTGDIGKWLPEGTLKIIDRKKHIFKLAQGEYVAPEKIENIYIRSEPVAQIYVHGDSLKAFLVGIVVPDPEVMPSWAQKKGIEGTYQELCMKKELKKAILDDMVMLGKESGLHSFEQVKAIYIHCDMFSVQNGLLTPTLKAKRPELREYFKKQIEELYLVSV", "UniProt Q91ZP3": "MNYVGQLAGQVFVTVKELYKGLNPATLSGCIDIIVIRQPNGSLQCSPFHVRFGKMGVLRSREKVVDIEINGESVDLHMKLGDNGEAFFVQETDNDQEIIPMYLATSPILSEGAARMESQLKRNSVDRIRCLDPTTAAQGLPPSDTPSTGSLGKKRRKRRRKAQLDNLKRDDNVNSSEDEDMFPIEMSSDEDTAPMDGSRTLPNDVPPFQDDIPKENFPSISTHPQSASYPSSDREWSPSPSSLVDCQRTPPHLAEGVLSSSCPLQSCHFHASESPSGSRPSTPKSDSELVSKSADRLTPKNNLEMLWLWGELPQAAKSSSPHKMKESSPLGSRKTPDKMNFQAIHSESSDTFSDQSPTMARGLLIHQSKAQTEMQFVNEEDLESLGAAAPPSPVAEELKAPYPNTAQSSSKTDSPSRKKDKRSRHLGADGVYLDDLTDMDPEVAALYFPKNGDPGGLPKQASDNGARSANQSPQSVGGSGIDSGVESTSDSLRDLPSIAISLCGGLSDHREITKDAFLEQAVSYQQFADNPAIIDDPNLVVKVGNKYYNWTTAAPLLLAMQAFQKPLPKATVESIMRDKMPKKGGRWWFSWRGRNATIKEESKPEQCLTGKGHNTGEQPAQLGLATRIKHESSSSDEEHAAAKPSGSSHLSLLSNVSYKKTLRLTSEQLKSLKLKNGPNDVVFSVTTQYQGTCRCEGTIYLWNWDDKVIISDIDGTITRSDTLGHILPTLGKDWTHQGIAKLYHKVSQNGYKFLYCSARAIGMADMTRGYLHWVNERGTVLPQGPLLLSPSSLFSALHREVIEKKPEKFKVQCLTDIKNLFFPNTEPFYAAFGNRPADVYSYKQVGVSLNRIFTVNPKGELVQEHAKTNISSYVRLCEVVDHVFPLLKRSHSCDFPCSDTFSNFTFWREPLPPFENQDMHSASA", "UniProt Q8VI33, whole entry": "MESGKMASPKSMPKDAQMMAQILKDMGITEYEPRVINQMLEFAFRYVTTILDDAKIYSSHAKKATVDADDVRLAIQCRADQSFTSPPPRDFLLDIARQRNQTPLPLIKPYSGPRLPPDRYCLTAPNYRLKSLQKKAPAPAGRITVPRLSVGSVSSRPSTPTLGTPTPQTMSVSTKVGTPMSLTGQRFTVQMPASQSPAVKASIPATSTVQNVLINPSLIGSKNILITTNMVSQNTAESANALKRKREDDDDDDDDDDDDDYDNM", "UniProt Q91Z49": "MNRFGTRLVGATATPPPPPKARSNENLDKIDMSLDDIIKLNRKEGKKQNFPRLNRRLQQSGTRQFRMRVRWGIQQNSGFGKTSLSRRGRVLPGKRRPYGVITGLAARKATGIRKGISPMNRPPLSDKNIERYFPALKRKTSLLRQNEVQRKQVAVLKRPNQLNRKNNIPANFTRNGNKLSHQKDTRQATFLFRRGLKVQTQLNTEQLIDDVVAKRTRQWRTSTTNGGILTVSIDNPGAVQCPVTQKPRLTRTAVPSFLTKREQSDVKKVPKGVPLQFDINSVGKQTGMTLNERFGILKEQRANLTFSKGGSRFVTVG", "UniProt Q91WG5": "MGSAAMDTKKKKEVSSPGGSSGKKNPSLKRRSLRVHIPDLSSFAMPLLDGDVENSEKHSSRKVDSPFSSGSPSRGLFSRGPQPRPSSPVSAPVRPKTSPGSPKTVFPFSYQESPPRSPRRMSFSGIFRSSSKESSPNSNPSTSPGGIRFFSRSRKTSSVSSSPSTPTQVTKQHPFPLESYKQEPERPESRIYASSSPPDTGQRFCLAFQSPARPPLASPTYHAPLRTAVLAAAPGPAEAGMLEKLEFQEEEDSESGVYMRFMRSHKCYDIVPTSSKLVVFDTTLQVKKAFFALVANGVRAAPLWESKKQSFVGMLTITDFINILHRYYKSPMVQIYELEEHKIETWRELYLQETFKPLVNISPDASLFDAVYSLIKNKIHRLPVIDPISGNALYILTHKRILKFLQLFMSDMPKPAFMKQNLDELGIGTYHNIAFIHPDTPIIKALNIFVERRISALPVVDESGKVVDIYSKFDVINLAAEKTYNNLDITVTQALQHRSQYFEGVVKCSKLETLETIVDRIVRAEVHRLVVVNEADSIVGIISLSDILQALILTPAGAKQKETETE"}, "source": "the supplement of paper PMC12819154", "about": "“High-throughput peptide-centric local stability assay extends protein–ligand identification to membrane proteins, tissues and bacteria” (Nature Structural & Molecular Biology, 2025)", "note": "The other results are listed elsewhere or left out. Small differences around the control level are noise.", "data": [{"compound": "CN[C@@H]1C[C@H]2O[C@@](C)([C@@H]1OC)n1c3ccccc3c3c4c(c5c6ccccc6n2c5c31)C(=O)NC4 [staurosporine]", "experiment": "log2 fold change of tryptic peptide abundance, ligand vs vehicle (limited proteolysis) (log2 ratio); higher = more trypsin-susceptible (destabilized)", "settings": "ligand concentration: 20 uM; sample: mouse liver crude lysate; replicate design: treated separately", "values": [{"target": "UniProt Q8VI84 (peptide sequence: KHESVIEK, peptide start residue: 126)", "log2 fold change": -0.267}, {"target": "UniProt Q91WE6 (peptide sequence: FYVAHNR, peptide start residue: 450)", "log2 fold change": 0.159}, {"target": "UniProt Q91XA2 (peptide sequence: GIINVPVGSER, peptide start residue: 367)", "log2 fold change": -0.268}, {"target": "UniProt Q91Z38 (peptide sequence: LKEEMLGK, peptide start residue: 243)", "log2 fold change": 0.191}, {"target": "UniProt Q8VHZ7 (peptide sequence: ALEENQLIPTELRR, peptide start residue: 35)", "log2 fold change": -0.193}, {"target": "UniProt Q91WC0 (peptide sequence: QNQIPTEDGSR, peptide start residue: 255)", "log2 fold change": -0.645}, {"target": "UniProt Q91YT0 (peptide sequence: YLVVNADEGEPGTCKDREIMR, peptide start residue: 112)", "log2 fold change": -0.723}, {"target": "UniProt Q91W43 (peptide sequence: GYVAHEFILDTRPFKK, peptide start residue: 862)", "log2 fold change": 0.158}, {"target": "UniProt Q91VC7 (peptide sequence: ARGPGGSPSGLQKR, peptide start residue: 20)", "log2 fold change": -1.14}, {"target": "UniProt Q91V16 (peptide sequence: LKNVFLK, peptide start residue: 34)", "log2 fold change": 0.069}, {"target": "UniProt Q91VC3 (peptide sequence: DVIAQSQSGTGK, peptide start residue: 77)", "log2 fold change": 0.174}, {"target": "UniProt Q8VHL0 (peptide sequence: VDRGENQILSCR, peptide start residue: 10)", "log2 fold change": -0.226}, {"target": "UniProt Q91W86 (peptide sequence: GDREALSCR, peptide start residue: 579)", "log2 fold change": -1.12}, {"target": "UniProt Q91WE2 (peptide sequence: EEELEELK, peptide start residue: 106)", "log2 fold change": -0.323}, {"target": "UniProt Q91WD5 (peptide sequence: IIEQCLNK, peptide start residue: 343)", "log2 fold change": -0.154}, {"target": "UniProt Q91WT9 (peptide sequence: AVVDKWFK, peptide start residue: 315)", "log2 fold change": -0.451}, {"target": "UniProt Q8VHH5 (peptide sequence: ATPTTAPGTSPR, peptide start residue: 469)", "log2 fold change": 0.12}, {"target": "UniProt Q91XV3 (peptide sequence: EADKAAAAKEEAPK, peptide start residue: 73)", "log2 fold change": -0.797}, {"target": "UniProt Q91YI0 (peptide sequence: WSHWILSHAVALTR, peptide start residue: 169)", "log2 fold change": -0.389}, {"target": "UniProt Q91YX0 (peptide sequence: ASVVPEDQPLRLEAVEIHHGIR, peptide start residue: 121)", "log2 fold change": 0.472}, {"target": "UniProt Q8VI93 (peptide sequence: LVAHNLHPAPEFTAAVR, peptide start residue: 14)", "log2 fold change": 0.191}, {"target": "UniProt Q91WN1 (peptide sequence: TYKGSEEELNDIK, peptide start residue: 119)", "log2 fold change": -0.581}, {"target": "UniProt Q91WS0 (peptide sequence: VVHAFDMEDLGDK, peptide start residue: 56)", "log2 fold change": -0.155}, {"target": "UniProt Q91YW3 (peptide sequence: RATVFLAMGK, peptide start residue: 77)", "log2 fold change": 0.389}, {"target": "UniProt Q91ZM2 (peptide sequence: VGGPLAVLGPSR, peptide start residue: 114)", "log2 fold change": 0.307}, {"target": "UniProt Q91WC3 (peptide sequence: LLNRMYDK, peptide start residue: 369)", "log2 fold change": 0.1}, {"target": "UniProt Q91ZP3 (peptide sequence: KAQLDNLKR, peptide start residue: 161)", "log2 fold change": 0.726}, {"target": "UniProt Q91YR1 (peptide sequence: DAFQALEK, peptide start residue: 185)", "log2 fold change": -0.311}, {"target": "UniProt Q91VW9 (peptide sequence: TFTQSCSLLEHHR, peptide start residue: 405)", "log2 fold change": -0.26}, {"target": "UniProt Q91YJ2 (peptide sequence: ETVNETGFQLK, peptide start residue: 189)", "log2 fold change": 0.149}, {"target": "UniProt Q8VI33 (peptide sequence: VGTPMSLTGQR, peptide start residue: 176)", "log2 fold change": 0.144}, {"target": "UniProt Q91Z49 (peptide sequence: TAVPSFLTKR, peptide start residue: 252)", "log2 fold change": 0.313}, {"target": "UniProt Q91ZT9 (peptide sequence: TALHYAAER, peptide start residue: 88)", "log2 fold change": 0.0727}, {"target": "UniProt Q91WG5 (peptide sequence: MSFSGIFR, peptide start residue: 121)", "log2 fold change": -0.212}, {"target": "UniProt Q91W39 (peptide sequence: DSRDPLYRR, peptide start residue: 115)", "log2 fold change": -0.611}, {"target": "UniProt Q91VY5 (peptide sequence: TVSLGQIVITK, peptide start residue: 906)", "log2 fold change": -0.22}]}]}
